Experimental data: PubChem BioAssay AID1259254 (NCATS, 2017)
Shown is one part, drawn at random, of about 59,000 deposited reagents. About 1,550 of all reagents (2.6%) were called active. 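G2 share is only a proxy for re-replication; each gene was hit by three separate siRNAs, and active genes were retested.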 Reagents against one gene are numbered here. Not all columns of the deposit are shown. Reagent sequences are not shown. Not given: the amount of reagent.

Purpose: 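Genome-wide screen for genes that prevent DNA re-replication in cancer cells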 (primary screen)
System: human HCT116 colorectal cancer cells
Knock-down reagent: single siRNA against human genes
Timing: 3 days
Detection: 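Imaged Hoechst DNA stain sorts each cell into a cycle phase by DNA amount; per plate, G2 fraction set to 0% for non-targeting and 100% for GMNN siRNA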
Reading the numbers: G2 robust z-score and G2 cells, % of GMNN control: higher = more G2 cells, more excess DNA replication
Rule for the call: 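An siRNA counts as active if its G2 robust z-score lies at least 5 MADs above the screen median; here such calls match roughly 38% of GMNN control or more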

Depletion of TM2D3 (GeneID 80213) #1 came out at: G2 robust z-score 0.26; G2 cells, % of GMNN control 4.8; inactive.
For TM2D3 (GeneID 80213) #2 the deposit lists G2 robust z-score 1.42; G2 cells, % of GMNN control 13; inactive.
Silencing of TM2D3 (GeneID 80213) #3 resulted in: G2 robust z-score 1.78; G2 cells, % of GMNN control 15.5; inactive.
Against TRPM7 (GeneID 54822) #1, the entry reads G2 robust z-score -1.49; G2 cells, % of GMNN control -7.51; inactive.
Depletion of TRPM7 (GeneID 54822) #2 gave: G2 robust z-score 8.38; G2 cells, % of GMNN control 61.9; active.
TRPM7 (GeneID 54822) #3 showed G2 robust z-score -1.05; G2 cells, % of GMNN control -4.44; inactive.
For PRPH2 (GeneID 5961) #1 the deposit lists G2 robust z-score 1.34; G2 cells, % of GMNN control 12.4; inactive.
For PRPH2 (GeneID 5961) #2, the values are G2 robust z-score -0.85; G2 cells, % of GMNN control -3.01; inactive.
Knock-down of PRPH2 (GeneID 5961) #3 gave: G2 robust z-score -0.75; G2 cells, % of GMNN control -2.31; inactive.
Against AKAIN1 (GeneID 642597) #1 the deposit lists G2 robust z-score -1.01; G2 cells, % of GMNN control -4.12; inactive.
Against AKAIN1 (GeneID 642597) #2, the values are G2 robust z-score 0.353; G2 cells, % of GMNN control 5.45; inactive.
With knock-down of AKAIN1 (GeneID 642597) #3, the record shows G2 robust z-score -0.661; G2 cells, % of GMNN control -1.68; inactive.
For DSEL (GeneID 92126) #1, the entry reads G2 robust z-score -0.0556; G2 cells, % of GMNN control 2.58; inactive.
Depletion of DSEL (GeneID 92126) #2 gave: G2 robust z-score 0.182; G2 cells, % of GMNN control 4.25; inactive.
DSEL (GeneID 92126) #3 showed G2 robust z-score 0.956; G2 cells, % of GMNN control 9.69; inactive.
For SMPD2 (GeneID 6610) #1 the deposit lists G2 robust z-score -0.805; G2 cells, % of GMNN control -2.7; inactive.
SMPD2 (GeneID 6610) #2 showed G2 robust z-score -0.308; G2 cells, % of GMNN control 0.8; inactive.
With knock-down of SMPD2 (GeneID 6610) #3, the screen gave G2 robust z-score 7.29; G2 cells, % of GMNN control 54.2; active.
Knock-down of TEKT3 (GeneID 64518) #1 resulted in: G2 robust z-score 0.769; G2 cells, % of GMNN control 8.38; inactive.
Depletion of TEKT3 (GeneID 64518) #2 gave: G2 robust z-score 1.82; G2 cells, % of GMNN control 15.8; inactive.
For TEKT3 (GeneID 64518) #3, the values are G2 robust z-score -0.0258; G2 cells, % of GMNN control 2.79; inactive.
Silencing of ATP9A (GeneID 10079) #1 gave: G2 robust z-score -0.289; G2 cells, % of GMNN control 0.934; inactive.
For ATP9A (GeneID 10079) #2, the entry reads G2 robust z-score -0.194; G2 cells, % of GMNN control 1.6; inactive.
ATP9A (GeneID 10079) #3 gave G2 robust z-score -0.855; G2 cells, % of GMNN control -3.05; inactive.
Depletion of CPA6 (GeneID 57094) #1 resulted in: G2 robust z-score 4.17; G2 cells, % of GMNN control 32.3; inactive.
Against CPA6 (GeneID 57094) #2, the values are G2 robust z-score 0.288; G2 cells, % of GMNN control 4.99; inactive.
CPA6 (GeneID 57094) #3 scored G2 robust z-score 0.433; G2 cells, % of GMNN control 6.02; inactive.
For NR2C2 (GeneID 7182) #1, the entry reads G2 robust z-score 0.579; G2 cells, % of GMNN control 7.04; inactive.
After knock-down of NR2C2 (GeneID 7182) #2, the record shows G2 robust z-score -0.556; G2 cells, % of GMNN control -0.946; inactive.
NR2C2 (GeneID 7182) #3 gave G2 robust z-score 3.12; G2 cells, % of GMNN control 24.9; inactive.

3 entries from above, sorted by “G2 cells, % of GMNN control”, low to high:
DSEL (GeneID 92126) #1: G2 robust z-score = -0.0556; G2 cells, % of GMNN control = 2.58; Outcome = inactive
DSEL (GeneID 92126) #2: G2 robust z-score = 0.182; G2 cells, % of GMNN control = 4.25; Outcome = inactive
DSEL (GeneID 92126) #3: G2 robust z-score = 0.956; G2 cells, % of GMNN control = 9.69; Outcome = inactive
